Data from the supplement of paper PMC10849652.
The other results are listed elsewhere or left out.

Amino acid sequences for entries named in this document (tags omitted). A change or cut given only in a name is not applied to a line headed by its entry.
UniProt Q9UIM3: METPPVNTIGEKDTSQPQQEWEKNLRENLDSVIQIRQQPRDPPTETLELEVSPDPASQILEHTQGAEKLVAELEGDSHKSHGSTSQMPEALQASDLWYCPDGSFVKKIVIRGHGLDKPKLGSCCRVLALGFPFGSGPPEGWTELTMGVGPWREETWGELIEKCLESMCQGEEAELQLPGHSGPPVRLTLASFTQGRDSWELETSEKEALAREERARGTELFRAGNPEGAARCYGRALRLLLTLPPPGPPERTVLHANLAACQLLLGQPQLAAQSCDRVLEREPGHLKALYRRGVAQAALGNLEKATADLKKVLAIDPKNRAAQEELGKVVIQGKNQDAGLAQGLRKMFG
UniProt Q6ZV73: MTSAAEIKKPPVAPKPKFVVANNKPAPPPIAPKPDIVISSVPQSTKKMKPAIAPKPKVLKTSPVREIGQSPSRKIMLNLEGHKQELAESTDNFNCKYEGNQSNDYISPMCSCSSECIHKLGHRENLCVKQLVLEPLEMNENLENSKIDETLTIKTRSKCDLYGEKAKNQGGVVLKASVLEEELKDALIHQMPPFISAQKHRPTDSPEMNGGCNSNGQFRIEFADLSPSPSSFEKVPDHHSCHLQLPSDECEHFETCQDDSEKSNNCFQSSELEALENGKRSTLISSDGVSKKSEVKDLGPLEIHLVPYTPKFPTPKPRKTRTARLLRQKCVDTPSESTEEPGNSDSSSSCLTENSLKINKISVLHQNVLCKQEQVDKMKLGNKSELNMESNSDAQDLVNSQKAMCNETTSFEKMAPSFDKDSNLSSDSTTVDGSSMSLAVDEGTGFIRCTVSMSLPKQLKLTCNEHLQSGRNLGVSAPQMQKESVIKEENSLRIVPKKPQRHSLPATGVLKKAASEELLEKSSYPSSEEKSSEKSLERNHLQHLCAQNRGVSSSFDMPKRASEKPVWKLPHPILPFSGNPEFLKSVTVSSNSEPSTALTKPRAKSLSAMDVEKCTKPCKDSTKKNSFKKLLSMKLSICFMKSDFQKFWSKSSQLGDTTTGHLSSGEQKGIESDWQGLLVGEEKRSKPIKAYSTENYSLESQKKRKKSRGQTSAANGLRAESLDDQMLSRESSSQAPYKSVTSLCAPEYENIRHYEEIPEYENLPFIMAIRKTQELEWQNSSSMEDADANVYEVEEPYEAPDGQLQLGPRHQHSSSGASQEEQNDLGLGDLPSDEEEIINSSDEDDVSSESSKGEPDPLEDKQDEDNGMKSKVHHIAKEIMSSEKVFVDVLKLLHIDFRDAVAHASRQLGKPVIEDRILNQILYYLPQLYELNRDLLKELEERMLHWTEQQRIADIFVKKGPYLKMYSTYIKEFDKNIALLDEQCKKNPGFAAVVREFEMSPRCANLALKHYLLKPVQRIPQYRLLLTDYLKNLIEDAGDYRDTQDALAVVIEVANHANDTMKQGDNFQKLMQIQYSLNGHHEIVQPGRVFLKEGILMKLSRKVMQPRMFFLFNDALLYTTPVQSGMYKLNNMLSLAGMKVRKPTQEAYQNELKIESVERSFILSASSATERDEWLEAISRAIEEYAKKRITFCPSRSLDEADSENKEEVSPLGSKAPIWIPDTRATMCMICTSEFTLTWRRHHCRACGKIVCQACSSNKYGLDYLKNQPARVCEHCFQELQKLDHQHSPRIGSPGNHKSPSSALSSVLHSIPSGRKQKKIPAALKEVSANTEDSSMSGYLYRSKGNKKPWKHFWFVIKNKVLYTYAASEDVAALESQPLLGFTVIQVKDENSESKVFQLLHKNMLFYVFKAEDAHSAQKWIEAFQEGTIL
UniProt Q14315, whole entry, looked up: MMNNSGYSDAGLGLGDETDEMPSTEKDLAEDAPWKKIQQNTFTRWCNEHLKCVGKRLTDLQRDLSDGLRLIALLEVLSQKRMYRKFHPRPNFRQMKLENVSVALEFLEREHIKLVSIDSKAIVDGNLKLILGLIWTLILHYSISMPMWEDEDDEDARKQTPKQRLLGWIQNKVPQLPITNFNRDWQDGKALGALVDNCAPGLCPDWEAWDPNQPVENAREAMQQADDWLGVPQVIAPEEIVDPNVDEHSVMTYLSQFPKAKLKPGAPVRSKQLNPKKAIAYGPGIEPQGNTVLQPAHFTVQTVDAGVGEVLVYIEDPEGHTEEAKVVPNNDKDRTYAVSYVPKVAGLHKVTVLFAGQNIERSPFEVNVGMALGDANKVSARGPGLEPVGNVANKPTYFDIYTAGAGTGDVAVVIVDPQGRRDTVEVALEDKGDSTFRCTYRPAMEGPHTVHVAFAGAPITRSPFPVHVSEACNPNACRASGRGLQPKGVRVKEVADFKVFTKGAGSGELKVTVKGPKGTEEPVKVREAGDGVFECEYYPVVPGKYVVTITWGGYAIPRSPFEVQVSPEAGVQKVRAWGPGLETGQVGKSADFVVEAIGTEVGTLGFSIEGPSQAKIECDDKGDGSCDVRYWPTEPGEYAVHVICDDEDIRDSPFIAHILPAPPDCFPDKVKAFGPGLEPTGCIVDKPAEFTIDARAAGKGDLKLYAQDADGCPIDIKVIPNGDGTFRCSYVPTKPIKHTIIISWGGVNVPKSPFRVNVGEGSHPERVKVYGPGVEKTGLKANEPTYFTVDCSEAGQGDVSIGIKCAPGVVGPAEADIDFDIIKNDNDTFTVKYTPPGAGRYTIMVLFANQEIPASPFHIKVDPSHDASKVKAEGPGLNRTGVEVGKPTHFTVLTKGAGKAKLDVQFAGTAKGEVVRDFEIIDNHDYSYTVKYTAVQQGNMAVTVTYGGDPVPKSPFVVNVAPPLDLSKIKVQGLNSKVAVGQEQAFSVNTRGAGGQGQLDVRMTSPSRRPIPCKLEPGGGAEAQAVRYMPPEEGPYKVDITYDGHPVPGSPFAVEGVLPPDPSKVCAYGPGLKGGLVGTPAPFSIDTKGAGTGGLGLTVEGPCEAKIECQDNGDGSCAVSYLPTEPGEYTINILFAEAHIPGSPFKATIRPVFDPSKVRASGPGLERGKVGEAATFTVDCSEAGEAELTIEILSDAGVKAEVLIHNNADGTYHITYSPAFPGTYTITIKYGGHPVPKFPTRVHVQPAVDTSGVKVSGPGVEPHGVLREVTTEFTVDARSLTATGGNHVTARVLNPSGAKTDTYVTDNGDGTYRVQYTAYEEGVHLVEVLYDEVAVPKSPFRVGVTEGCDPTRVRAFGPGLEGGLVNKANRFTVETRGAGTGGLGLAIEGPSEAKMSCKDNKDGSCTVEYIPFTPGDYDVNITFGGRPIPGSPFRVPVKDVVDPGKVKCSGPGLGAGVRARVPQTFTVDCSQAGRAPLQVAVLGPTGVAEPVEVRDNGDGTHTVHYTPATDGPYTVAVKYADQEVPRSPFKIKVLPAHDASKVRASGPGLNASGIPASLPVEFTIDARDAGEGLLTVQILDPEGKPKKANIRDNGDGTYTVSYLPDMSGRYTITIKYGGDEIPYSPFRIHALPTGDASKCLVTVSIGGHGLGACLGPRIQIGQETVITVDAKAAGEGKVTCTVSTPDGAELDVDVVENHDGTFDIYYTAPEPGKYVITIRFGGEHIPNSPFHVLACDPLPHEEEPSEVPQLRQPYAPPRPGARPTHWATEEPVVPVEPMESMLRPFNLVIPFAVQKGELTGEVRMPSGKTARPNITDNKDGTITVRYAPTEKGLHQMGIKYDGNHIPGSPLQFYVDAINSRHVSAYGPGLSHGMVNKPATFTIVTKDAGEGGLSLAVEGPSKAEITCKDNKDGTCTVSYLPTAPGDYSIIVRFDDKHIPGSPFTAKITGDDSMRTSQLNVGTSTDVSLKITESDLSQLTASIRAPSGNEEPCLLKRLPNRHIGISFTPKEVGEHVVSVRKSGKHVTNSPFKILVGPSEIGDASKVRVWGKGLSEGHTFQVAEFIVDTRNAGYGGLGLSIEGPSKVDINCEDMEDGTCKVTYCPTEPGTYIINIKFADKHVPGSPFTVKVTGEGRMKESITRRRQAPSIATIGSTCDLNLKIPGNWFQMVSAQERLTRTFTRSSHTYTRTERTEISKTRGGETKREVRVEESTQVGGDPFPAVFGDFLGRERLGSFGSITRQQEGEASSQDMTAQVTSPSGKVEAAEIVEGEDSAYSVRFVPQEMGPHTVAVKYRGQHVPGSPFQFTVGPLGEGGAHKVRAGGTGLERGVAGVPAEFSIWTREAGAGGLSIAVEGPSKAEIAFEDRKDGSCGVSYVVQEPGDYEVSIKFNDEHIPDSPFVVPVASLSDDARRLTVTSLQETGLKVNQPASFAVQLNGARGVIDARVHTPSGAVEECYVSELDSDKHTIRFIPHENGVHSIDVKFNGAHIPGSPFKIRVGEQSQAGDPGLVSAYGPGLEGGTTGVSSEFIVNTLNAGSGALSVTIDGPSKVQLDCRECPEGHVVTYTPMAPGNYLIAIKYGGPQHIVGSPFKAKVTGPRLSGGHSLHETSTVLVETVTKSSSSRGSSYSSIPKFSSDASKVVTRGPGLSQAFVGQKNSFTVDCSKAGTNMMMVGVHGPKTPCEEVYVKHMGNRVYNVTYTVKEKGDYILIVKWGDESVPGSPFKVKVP
UniProt P26885: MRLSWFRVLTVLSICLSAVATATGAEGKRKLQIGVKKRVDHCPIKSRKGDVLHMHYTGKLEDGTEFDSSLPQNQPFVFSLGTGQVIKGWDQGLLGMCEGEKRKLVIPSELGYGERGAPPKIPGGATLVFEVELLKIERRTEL
UniProt Q96ME1: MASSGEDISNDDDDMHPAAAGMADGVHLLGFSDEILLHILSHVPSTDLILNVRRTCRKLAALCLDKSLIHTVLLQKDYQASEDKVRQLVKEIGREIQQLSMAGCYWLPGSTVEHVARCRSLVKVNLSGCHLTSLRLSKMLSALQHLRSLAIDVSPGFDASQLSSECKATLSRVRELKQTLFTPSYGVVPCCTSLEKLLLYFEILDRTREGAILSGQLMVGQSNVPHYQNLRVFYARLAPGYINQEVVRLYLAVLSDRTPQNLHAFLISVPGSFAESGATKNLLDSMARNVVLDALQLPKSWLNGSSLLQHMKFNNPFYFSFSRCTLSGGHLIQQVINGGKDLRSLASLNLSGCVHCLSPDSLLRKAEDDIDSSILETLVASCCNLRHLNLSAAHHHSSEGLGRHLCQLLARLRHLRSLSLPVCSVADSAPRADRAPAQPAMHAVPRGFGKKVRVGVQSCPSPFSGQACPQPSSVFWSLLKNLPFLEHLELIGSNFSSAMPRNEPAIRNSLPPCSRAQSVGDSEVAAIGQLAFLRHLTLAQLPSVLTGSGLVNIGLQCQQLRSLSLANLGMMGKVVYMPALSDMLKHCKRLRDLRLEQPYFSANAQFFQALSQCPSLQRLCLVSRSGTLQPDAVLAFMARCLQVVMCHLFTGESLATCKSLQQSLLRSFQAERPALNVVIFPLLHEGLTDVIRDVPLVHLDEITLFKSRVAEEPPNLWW
UniProt Q86UX7, whole entry, looked up: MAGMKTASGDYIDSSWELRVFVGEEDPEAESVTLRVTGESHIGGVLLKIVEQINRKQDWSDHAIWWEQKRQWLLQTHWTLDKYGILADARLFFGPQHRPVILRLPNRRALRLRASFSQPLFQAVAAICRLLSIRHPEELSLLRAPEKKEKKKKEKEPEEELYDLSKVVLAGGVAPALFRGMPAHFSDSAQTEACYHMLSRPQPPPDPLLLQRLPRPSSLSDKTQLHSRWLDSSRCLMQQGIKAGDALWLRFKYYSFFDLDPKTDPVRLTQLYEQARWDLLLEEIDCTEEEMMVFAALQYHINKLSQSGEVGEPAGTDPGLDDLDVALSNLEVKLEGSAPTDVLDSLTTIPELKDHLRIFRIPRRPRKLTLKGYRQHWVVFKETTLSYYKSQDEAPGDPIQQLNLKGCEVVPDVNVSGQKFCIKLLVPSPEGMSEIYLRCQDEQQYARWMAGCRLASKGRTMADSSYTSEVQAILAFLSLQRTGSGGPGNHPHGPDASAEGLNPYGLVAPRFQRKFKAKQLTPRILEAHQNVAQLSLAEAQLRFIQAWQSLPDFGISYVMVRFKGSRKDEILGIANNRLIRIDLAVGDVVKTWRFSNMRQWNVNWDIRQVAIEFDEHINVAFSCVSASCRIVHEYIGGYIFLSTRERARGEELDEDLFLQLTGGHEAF

Compound: C[C@H](C1=CC=C(C=C1)C(=O)NC2=C3C=CNC3=NC=C2)N
Experiment: log2 fold change, soluble protein after heating vs DMSO (PISA); higher = thermal stabilisation; K562 lysate, 10 uM; active = over 0.2 and 3.5 SD of the protein, either way, in both replicates (recomputed)
In short: (§1)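 Pellets of K562 cells were dounce-homogenised in PBS pH 7.4 with 1 mM MgCl2, and the crude extract was held at 1 mg/mL protein for a 30 min treatment with 10 μM compound. Aliquots were heated for 3 min over 48°C-58°C and pooled before NP-40 was added to 0.5% at 4°C. The supernatant from 21,000xg for 90 min was quantified by TMTpro 16plex LC-MS/MS with channel sums equalised. Values are reported from duplicates as log-two fold change in thermal stability relative to solvent controls.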

log2 fold change, active:
FAU (UniProt E9PR30) 0.293
FBLL1 (UniProt A6NHQ2) -0.277

log2 fold change, inactive:
FKBPL (UniProt Q9UIM3) 0.068
FAR1 (UniProt Q8WVX9) -0.053
FLII (UniProt Q13045) 0.042
FGFR1OP (UniProt O95684) -0.024
FNTB (UniProt P49356) -0.047
FBXO6 (UniProt Q9NRD1) 0.019
FGD6 (UniProt Q6ZV73) 0.427
FLAD1 (UniProt Q8NFF5) 0.021
FLNC (UniProt Q14315) -0.089
FAM8A1 (UniProt Q9UBU6) -0.055
FBXW9 (UniProt Q5XUX1) 0.027
FAM98C (UniProt Q17RN3) -0.019
FIBP (UniProt O43427) 0.003
FBXL12 (UniProt Q9NXK8) -0.028
FN1 (UniProt P02751) -0.01
FECH isoform 2 (UniProt P22830) -0.12
FAM98A (UniProt Q8NCA5) 0.074
FASN (UniProt P49327) -0.02
FKBP2 (UniProt P26885) 0.156
FMNL1 isoform 3 (UniProt O95466) 0.044
FKBP8 isoform 2 (UniProt Q14318) -0.035
FBXL18 isoform 4 (UniProt Q96ME1) -0.039
FKBP5 (UniProt Q13451) 0.01
FDXR isoform 7 (UniProt P22570) -0.036
FLNB isoform 8 (UniProt O75369) -0.055
FBXL8 (UniProt Q96CD0) -0.043
FERMT3 (UniProt Q86UX7) -0.046
FNBP1L (UniProt Q5T0N5) -0.023
FBXO3 (UniProt Q9UK99) -0.125
FEZ2 isoform 2 (UniProt Q9UHY8) 0.089
FLCN (UniProt Q8NFG4) -0.029

Compound: C[C@H](Nc1ncnc2nc[nH]c12)c1cc2cccc(Cl)c2c(=O)n1-c1ccccc1 [duvelisib]
Experiment: as above
In short: as §1

log2 fold change, inactive:
FKBPL (UniProt Q9UIM3) 0.008
FAR1 (UniProt Q8WVX9) 0.111
FLII (UniProt Q13045) -0.017
FAU (UniProt E9PR30) 0.047
FGFR1OP (UniProt O95684) -0.012
FNTB (UniProt P49356) 0.143
FBXO6 (UniProt Q9NRD1) -0.012
FGD6 (UniProt Q6ZV73) 0.044
FLAD1 (UniProt Q8NFF5) 0.05
FLNC (UniProt Q14315) -0.011
FAM8A1 (UniProt Q9UBU6) 0.05
FBXW9 (UniProt Q5XUX1) 0.05
FAM98C (UniProt Q17RN3) -0.119
FIBP (UniProt O43427) 0.073
FBXL12 (UniProt Q9NXK8) 0.026
FBLL1 (UniProt A6NHQ2) 0.059
FN1 (UniProt P02751) 0.036
FECH isoform 2 (UniProt P22830) -0.022
FAM98A (UniProt Q8NCA5) -0.024
FASN (UniProt P49327) -0.007
FKBP2 (UniProt P26885) -0.03
FMNL1 isoform 3 (UniProt O95466) 0
FKBP8 isoform 2 (UniProt Q14318) 0.044
FBXL18 isoform 4 (UniProt Q96ME1) 0.009
FKBP5 (UniProt Q13451) 0.014
FDXR isoform 7 (UniProt P22570) -0.003
FLNB isoform 8 (UniProt O75369) -0.008
FBXL8 (UniProt Q96CD0) -0.016
FERMT3 (UniProt Q86UX7) -0.004
FNBP1L (UniProt Q5T0N5) -0.115
FBXO3 (UniProt Q9UK99) 0.04
FEZ2 isoform 2 (UniProt Q9UHY8) -0.005
FLCN (UniProt Q8NFG4) -0.005

Compound: Cc1cc(Nc2cc(CN3CCOCC3)c3nc(C)c(Cc4ccc(Cl)cc4F)n3n2)n[nH]1 [gandotinib]
Experiment: as above
In short: as §1

log2 fold change, inactive:
FKBPL (UniProt Q9UIM3) -0.009
FAR1 (UniProt Q8WVX9) 0.035
FLII (UniProt Q13045) -0.046
FAU (UniProt E9PR30) -0.105
FGFR1OP (UniProt O95684) 0.059
FNTB (UniProt P49356) 0.055
FBXO6 (UniProt Q9NRD1) -0.043
FGD6 (UniProt Q6ZV73) 0.448
FLAD1 (UniProt Q8NFF5) 0.044
FLNC (UniProt Q14315) 0.051
FAM8A1 (UniProt Q9UBU6) -0.005
FBXW9 (UniProt Q5XUX1) -0.047
FAM98C (UniProt Q17RN3) -0.059
FIBP (UniProt O43427) -0.031
FBXL12 (UniProt Q9NXK8) -0.013
FBLL1 (UniProt A6NHQ2) 0.028
FN1 (UniProt P02751) -0.006
FECH isoform 2 (UniProt P22830) 0.418
FAM98A (UniProt Q8NCA5) -0.059
FASN (UniProt P49327) -0.019
FKBP2 (UniProt P26885) -0.001
FMNL1 isoform 3 (UniProt O95466) -0.056
FKBP8 isoform 2 (UniProt Q14318) -0.021
FBXL18 isoform 4 (UniProt Q96ME1) 0.015
FKBP5 (UniProt Q13451) -0.053
FDXR isoform 7 (UniProt P22570) 0.04
FLNB isoform 8 (UniProt O75369) 0.025
FBXL8 (UniProt Q96CD0) 0.115
FERMT3 (UniProt Q86UX7) 0.046
FNBP1L (UniProt Q5T0N5) 0.002
FBXO3 (UniProt Q9UK99) -0.006
FEZ2 isoform 2 (UniProt Q9UHY8) -0.002
FLCN (UniProt Q8NFG4) -0.051
